# Measured values published in patent publication US20230123497A1, “NOVEL ANTIBACTERIAL HYDROGELS” (NewSouth Innovations Pty Limited, priority 2020, published 2023).
# Some entries share one result that the patent states for a list of compounds.
# Tested on: HEK 293T cells
# Experiment: Cytotoxicity, Alamar Blue colorimetric assay
# Assay type: cell-based
# Conditions: hydrogels at 0.3, 0.6 and 1.0% w/v, 24 hours
# Protocol: Cytotoxicity measurements were performed using an Alamar Blue colorimetric assay. Each experiment was repeated at least three times. Cells were passaged using standard cell culture procedures. Cells were detached with trypsin and centrifuged (1000 rpm for 3 min). The supernatant was removed and the cells re-suspended in Dulbecco's Modified Eagle Medium (DMEM) at a concentration of 100,000 cells per mL. Cells were seeded at a concentration of 6,000 cells per well. For cytotoxicity measurements, […] of hydrogel made from short-peptide 4 (at 1% w/v and 2% w/v) and short peptides 11, 12, 13, and 16 (at 0.3, 0.6, and 1.0% w/v) were added in triplicate to a 96-well plate and allowed to set overnight. Surrounding wells were supplemented with water to ensure hydration of the gels. Gels were then incubated for 24 h with DMEM. Cells were seeded atop the hydrogels and incubated for 24 hours, before […] of Alamar Blue was added to the wells, followed by further incubation for 4 h. Control wells included cell-free gels, no hydrogels and a negative control of 15% (v/v) DMSO. The absorbances at 570 nm and 596 nm were recorded using a BioRad Benchmark plate reader.
row,SMILES,cell viability
1,NCCCNC(=O)[C@H](Cc1ccccc1)NC(=O)c1ccccc1NC(=O)c1ccc2ccccc2c1 [Compound 11],More than 80%
2,"C[N+](C)(C)CCCNC(=O)[C@H](Cc1ccccc1)NC(=O)c1ccccc1NC(=O)c1ccc2ccccc2c1.[I-] [Compound 13, (S)-3-(2-(2-(2-naphthamido)benzamido)-3-phenylpropanamido)-N,N,N-trimethylpropan-1-aminium iodide]",More than 80%
3,CN(C)CCCNC(=O)[C@H](Cc1ccccc1)NC(=O)c1ccc(Cl)cc1NC(=O)c1ccc2ccccc2c1 [Compound 16],More than 80%
4,CN(C)CCCNC(=O)[C@H](Cc1ccccc1)NC(=O)c1ccccc1NC(=O)c1ccc2ccccc2c1 [Compound 12],More than 80%
